Source: paper doi:10.64898/2025.12.19.694617
No constants are given. Whether binding was seen depends on the method and setting. Binding seen in cells or lysates may run through a third protein. A yes stands for co-enrichment or nearness to the bait. Other partners may have been found.

Amino acid sequences for entries named in this document (tags omitted).
UniProt Q99PV8: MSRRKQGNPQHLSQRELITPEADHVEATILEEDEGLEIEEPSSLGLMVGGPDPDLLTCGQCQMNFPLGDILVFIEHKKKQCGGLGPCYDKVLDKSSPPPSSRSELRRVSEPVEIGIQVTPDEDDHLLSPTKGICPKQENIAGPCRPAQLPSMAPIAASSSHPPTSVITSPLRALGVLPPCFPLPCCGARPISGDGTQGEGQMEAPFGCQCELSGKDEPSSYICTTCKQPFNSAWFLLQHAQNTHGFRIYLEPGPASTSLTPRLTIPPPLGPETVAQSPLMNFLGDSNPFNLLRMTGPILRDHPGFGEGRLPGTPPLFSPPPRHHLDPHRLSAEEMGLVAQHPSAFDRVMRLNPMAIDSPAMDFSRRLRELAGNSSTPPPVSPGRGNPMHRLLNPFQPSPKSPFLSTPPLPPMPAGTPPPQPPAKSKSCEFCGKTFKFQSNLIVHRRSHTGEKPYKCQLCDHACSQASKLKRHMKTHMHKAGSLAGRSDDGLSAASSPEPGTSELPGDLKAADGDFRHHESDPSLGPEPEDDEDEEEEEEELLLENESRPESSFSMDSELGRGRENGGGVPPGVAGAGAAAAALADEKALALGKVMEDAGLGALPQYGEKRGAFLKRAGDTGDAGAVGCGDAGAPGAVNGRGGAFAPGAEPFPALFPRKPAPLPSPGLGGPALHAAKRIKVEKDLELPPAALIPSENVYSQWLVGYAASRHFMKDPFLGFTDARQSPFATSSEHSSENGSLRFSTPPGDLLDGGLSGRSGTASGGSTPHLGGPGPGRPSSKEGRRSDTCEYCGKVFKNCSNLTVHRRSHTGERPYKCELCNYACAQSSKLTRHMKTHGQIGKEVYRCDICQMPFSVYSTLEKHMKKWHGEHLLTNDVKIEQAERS

Target: Bcl11b-streptag (mouse) (UniProt Q99PV8)
Test: affinity purification with mass spectrometry

Binder	binding
Nap1l1 (protein, UniProt P28656 1-391) MADIDNKEQSELDQDLEDVEEVEEEETGEETKIKARQLTVQMMQNPQILAALQERLDGLVDTPTGYIESLPKVVKRRVNALKNLQVKCAQIEAKFYEEVHDLERKYAVLYQPLFDKRFEIINAIYEPTEEECEWKPDEEDEVSEELKEKAKIEDEKKDEEKEDPKGIPEFWLTVFKNVDLLSDMVQEHDEPILKHLKDIKVKFSDAGQPMSFVLEFHFEPNDYFTNEVLTKTYRMRSEPDDSDPFSFDGPEIMGCTGCQIDWKKGKNVTLKTIKKKQKHKGRGTVRTVTKTVSNDSFFNFFAPPEVPENGDLDDDAEAILAADFEIGHFLRERIIPRSVLYFTGEAIEDDDDDYDEEGEEADEEGEEEGDEENDPDYDPKKDQNPAECKQQ	binds
Pura (protein, UniProt P42669 1-321) MADRDSGSEQGGAALGSGGSLGHPGSGSGSGGGGGGGGGGGGSGGGGGAPGGLQHETQELASKRVDIQNKRFYLDVKQNAKGRFLKIAEVGAGGNKSRLTLSMSVAVEFRDYLGDFIEHYAQLGPSQPPDLAQAQDEPRRALKSEFLVRENRKYYMDLKENQRGRFLRIRQTVNRGPGLGSTQGQTIALPAQGLIEFRDALAKLIDDYGVEEEPAELPEGTSLTVDNKRFFFDVGSNKYGVFMRVSEVKPTYRNSITVPYKVWAKFGHTFCKYSEEMKKIQEKQREKRAACEQLHQQQQQQQEETTAATLLLQGEEEGEED	binds
